Data taken from the supplement of paper PMC8728848.
This is one part of the list.

Experiments:
Assay in all cases: glycan array binding signal (z-score within array); higher = stronger binding
Settings in all cases: glycan notation: IUPAC condensed, linker removed
[1] = molecular target: Neu5Ac(a2-3)GalNAc
In short: (§1)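 From the Consortium for Functional Glycomics database, 3228 arrays were curated, keeping only those whose protein sequence was available. Binding is given as a within-array Z-score averaged across arrays sharing a protein sequence and across linkers. Negative Z-scores can be read as non-binding.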

[2] = molecular target: Neu5Ac(a2-3)GalNAc(b1-4)GlcNAc
In short: as §1

[3] = molecular target: Neu5Ac(a2-3)[GalNAc(b1-4)]Gal(b1-4)Glc
In short: as §1

[4] = molecular target: Neu5Ac(a2-3)[GalNAc(b1-4)]Gal(b1-4)GlcNAc
In short: as §1

[5] = molecular target: Neu5Ac(a2-3)[GalNAc(b1-4)]Gal(b1-4)GlcNAc(b1-3)GalNAc
In short: as §1

[6] = molecular target: Neu5Ac(a2-3)[Neu5Ac(a2-6)]GalNAc
In short: as §1

[7] = molecular target: Neu5Ac(a2-6)Gal
In short: as §1

[8] = molecular target: Neu5Ac(a2-6)Gal(b1-3)GlcNAc(b1-3)[Gal(b1-4)GlcNAc(b1-6)]Gal(b1-4)Glc
In short: as §1

[9] = molecular target: Neu5Ac(a2-6)Gal(b1-4)Glc
In short: as §1

[10] = molecular target: Neu5Ac(a2-6)Gal(b1-4)GlcNAc
In short: as §1

[11] = molecular target: Neu5Ac(a2-6)Gal(b1-4)GlcNAc(b1-2)Man
In short: as §1

[12] = molecular target: Neu5Ac(a2-6)Gal(b1-4)GlcNAc(b1-2)Man(a1-3)Man(b1-4)GlcNAc(b1-4)GlcNAc
In short: as §1

[13] = molecular target: Neu5Ac(a2-6)Gal(b1-4)GlcNAc(b1-2)Man(a1-3)[Gal(b1-4)GlcNAc(b1-2)Man(a1-6)]Man(b1-4)GlcNAc(b1-4)GlcNAc
In short: as §1

[14] = molecular target: Neu5Ac(a2-6)Gal(b1-4)GlcNAc(b1-2)Man(a1-3)[GlcNAc(b1-2)Man(a1-6)]Man(b1-4)GlcNAc(b1-4)GlcNAc
In short: as §1

[15] = molecular target: Neu5Ac(a2-6)Gal(b1-4)GlcNAc(b1-2)Man(a1-3)[GlcNAc(b1-4)][Neu5Ac(a2-6)Gal(b1-4)GlcNAc(b1-2)Man(a1-6)]Man(b1-4)GlcNAc(b1-4)GlcNAc
In short: as §1

[16] = molecular target: Neu5Ac(a2-6)Gal(b1-4)GlcNAc(b1-2)Man(a1-3)[Man(a1-6)]Man(b1-4)GlcNAc(b1-4)GlcNAc
In short: as §1

[17] = molecular target: Neu5Ac(a2-6)Gal(b1-4)GlcNAc(b1-2)Man(a1-3)[Neu5Ac(a2-3)Gal(b1-4)GlcNAc(b1-2)Man(a1-6)]Man(b1-4)GlcNAc(b1-4)GlcNAc
In short: as §1

[18] = molecular target: Neu5Ac(a2-6)Gal(b1-4)GlcNAc(b1-2)Man(a1-3)[Neu5Ac(a2-6)Gal(b1-4)GlcNAc(b1-2)Man(a1-6)]Man(b1-4)GlcNAc(b1-4)GlcNAc
In short: as §1

[19] = molecular target: Neu5Ac(a2-6)Gal(b1-4)GlcNAc(b1-2)Man(a1-3)[Neu5Ac(a2-6)Gal(b1-4)GlcNAc(b1-2)Man(a1-6)]Man(b1-4)GlcNAc(b1-4)[Fuc(a1-6)]GlcNAc
In short: as §1

[20] = molecular target: Neu5Ac(a2-6)Gal(b1-4)GlcNAc(b1-2)Man(a1-6)Man(b1-4)GlcNAc(b1-4)GlcNAc
In short: as §1

[21] = molecular target: Neu5Ac(a2-6)Gal(b1-4)GlcNAc(b1-2)Man(a1-6)[Gal(b1-4)GlcNAc(b1-2)Man(a1-3)]Man(b1-4)GlcNAc(b1-4)GlcNAc
In short: as §1

[22] = molecular target: Neu5Ac(a2-6)Gal(b1-4)GlcNAc(b1-2)Man(a1-6)[GlcNAc(b1-2)Man(a1-3)]Man(b1-4)GlcNAc(b1-4)GlcNAc
In short: as §1

[23] = molecular target: Neu5Ac(a2-6)Gal(b1-4)GlcNAc(b1-2)Man(a1-6)[Man(a1-3)]Man(b1-4)GlcNAc(b1-4)GlcNAc
In short: as §1

[24] = molecular target: Neu5Ac(a2-6)Gal(b1-4)GlcNAc(b1-2)[Neu5Ac(a2-6)Gal(b1-4)GlcNAc(b1-4)]Man(a1-3)[GlcNAc(b1-4)][Neu5Ac(a2-6)Gal(b1-4)GlcNAc(b1-2)[Neu5Ac(a2-6)Gal(b1-4)GlcNAc(b1-6)]Man(a1-6)]Man(b1-4)GlcNAc(b1-4)GlcNAc
In short: as §1

[25] = molecular target: Neu5Ac(a2-6)Gal(b1-4)GlcNAc(b1-2)[Neu5Ac(a2-6)Gal(b1-4)GlcNAc(b1-4)]Man(a1-3)[GlcNAc(b1-4)][Neu5Ac(a2-6)Gal(b1-4)GlcNAc(b1-4)Man(a1-6)]Man(b1-4)GlcNAc(b1-4)GlcNAc
In short: as §1

[26] = molecular target: Neu5Ac(a2-6)Gal(b1-4)GlcNAc(b1-2)[Neu5Ac(a2-6)Gal(b1-4)GlcNAc(b1-6)]Man(a1-6)[Neu5Ac(a2-6)Gal(b1-4)GlcNAc(b1-2)Man(a1-3)][GlcNAc(b1-4)]Man(b1-4)GlcNAc(b1-4)GlcNAc
In short: as §1

[27] = molecular target: Neu5Ac(a2-6)Gal(b1-4)GlcNAc(b1-3)Gal(b1-3)GlcNAc
In short: as §1

[28] = molecular target: Neu5Ac(a2-6)Gal(b1-4)GlcNAc(b1-3)Gal(b1-4)GlcNAc
In short: as §1

[29] = molecular target: Neu5Ac(a2-6)Gal(b1-4)GlcNAc(b1-3)Gal(b1-4)GlcNAc(b1-2)Man(a1-3)[Neu5Ac(a2-6)Gal(b1-4)GlcNAc(b1-3)Gal(b1-4)GlcNAc(b1-2)Man(a1-6)]GalNAc
In short: as §1

[30] = molecular target: Neu5Ac(a2-6)Gal(b1-4)GlcNAc(b1-3)Gal(b1-4)GlcNAc(b1-3)Gal(b1-4)GlcNAc
In short: as §1

[31] = molecular target: Neu5Ac(a2-6)Gal(b1-4)GlcNAc(b1-3)Gal(b1-4)GlcNAc(b1-3)Gal(b1-4)GlcNAc(b1-2)Man(a1-3)[Neu5Ac(a2-6)Gal(b1-4)GlcNAc(b1-3)Gal(b1-4)GlcNAc(b1-3)Gal(b1-4)GlcNAc(b1-2)Man(a1-6)]GalNAc
In short: as §1

[32] = molecular target: Neu5Ac(a2-6)Gal(b1-4)GlcNAc(b1-3)Gal(b1-4)GlcNAc(b1-3)GalNAc
In short: as §1

[33] = molecular target: Neu5Ac(a2-6)Gal(b1-4)GlcNAc(b1-3)Gal(b1-4)GlcNAc(b1-3)[Neu5Ac(a2-6)Gal(b1-4)GlcNAc(b1-3)Gal(b1-4)GlcNAc(b1-6)]GalNAc
In short: as §1

[34] = molecular target: Neu5Ac(a2-6)Gal(b1-4)GlcNAc(b1-3)Gal(b1-4)GlcNAc(b1-6)[Gal(b1-3)]GalNAc
In short: as §1

[35] = molecular target: Neu5Ac(a2-6)Gal(b1-4)GlcNAc(b1-3)Gal(b1-4)[Fuc(a1-3)]GlcNAc(b1-3)Gal(b1-4)[Fuc(a1-3)]GlcNAc
In short: as §1

[36] = molecular target: Neu5Ac(a2-6)Gal(b1-4)GlcNAc(b1-3)GalNAc
In short: as §1

[37] = molecular target: Neu5Ac(a2-6)Gal(b1-4)GlcNAc(b1-3)[Neu5Ac(a2-6)Gal(b1-4)GlcNAc(b1-6)]GalNAc
In short: as §1

[38] = molecular target: Neu5Ac(a2-6)Gal(b1-4)GlcNAc(b1-6)GalNAc
In short: as §1

[39] = molecular target: Neu5Ac(a2-6)Gal(b1-4)GlcNAc(b1-6)[Gal(b1-3)GlcNAc(b1-3)]Gal(b1-4)Glc
In short: as §1

[40] = molecular target: Neu5Ac(a2-6)Gal(b1-4)GlcNAc(b1-6)[Gal(b1-3)]GalNAc
In short: as §1

[41] = molecular target: Neu5Ac(a2-6)Gal(b1-4)GlcNAc6S
In short: as §1

[42] = molecular target: Neu5Ac(a2-6)GalNAc
In short: as §1

[43] = molecular target: Neu5Ac(a2-6)GalNAc(b1-4)GlcNAc
In short: as §1

[44] = molecular target: Neu5Ac(a2-6)GalNAc(b1-4)GlcNAc6S
In short: as §1

[45] = molecular target: Neu5Ac(a2-6)GlcNAc(b1-4)GlcNAc
In short: as §1

B1: Agalectin (Anopheles gambiae) (protein)
chain: MSNRPFTAKFPRYPENGDEVFIRGKLKDDAKSFSVNFCLPRPAQVAEHQTPPYIALHFKTIYDERDDTSRVVLNWKNLQWQQEEVLDNYWHVDRSQTFRVVFRLHEDCIKVFVNSVDHPPDYQFPVQLPLDQIESIELWDDVEHVEEISFRYDNGNSY
glycan array binding signal (z-score) [1]: 0.015
glycan array binding signal (z-score) [2]: -0.863
glycan array binding signal (z-score) [3]: -0.448
glycan array binding signal (z-score) [4]: -0.255
glycan array binding signal (z-score) [5]: 0.174
glycan array binding signal (z-score) [6]: 0.542
glycan array binding signal (z-score) [7]: -0.159
glycan array binding signal (z-score) [8]: -0.951
glycan array binding signal (z-score) [9]: 0.643
glycan array binding signal (z-score) [10]: 0.241
glycan array binding signal (z-score) [11]: -0.2
glycan array binding signal (z-score) [12]: -0.062
glycan array binding signal (z-score) [13]: -0.321
glycan array binding signal (z-score) [14]: -0.527
glycan array binding signal (z-score) [15]: -0.378
glycan array binding signal (z-score) [16]: 2.21
glycan array binding signal (z-score) [17]: -0.49
glycan array binding signal (z-score) [18]: -0.355
glycan array binding signal (z-score) [19]: 5.84
glycan array binding signal (z-score) [20]: 0.632
glycan array binding signal (z-score) [21]: 0.911
glycan array binding signal (z-score) [22]: 0
glycan array binding signal (z-score) [23]: 0.592
glycan array binding signal (z-score) [24]: -0.174
glycan array binding signal (z-score) [25]: -0.59
glycan array binding signal (z-score) [26]: -1.09
glycan array binding signal (z-score) [27]: -0.752
glycan array binding signal (z-score) [28]: 0.757
glycan array binding signal (z-score) [29]: -0.295
glycan array binding signal (z-score) [30]: -0.576
glycan array binding signal (z-score) [31]: 2.96
glycan array binding signal (z-score) [32]: 0.187
glycan array binding signal (z-score) [33]: 1.94
glycan array binding signal (z-score) [34]: 0.185
glycan array binding signal (z-score) [35]: -0.26
glycan array binding signal (z-score) [36]: -0.455
glycan array binding signal (z-score) [37]: -0.501
glycan array binding signal (z-score) [38]: 1.29
glycan array binding signal (z-score) [39]: -0.439
glycan array binding signal (z-score) [40]: 1.88
glycan array binding signal (z-score) [41]: -1.2
glycan array binding signal (z-score) [42]: -0.753
glycan array binding signal (z-score) [43]: -0.735
glycan array binding signal (z-score) [44]: -0.365
glycan array binding signal (z-score) [45]: 0.207
